PubChem BioAssay AID1259290 – Sanger Institute, 2017
Screen: 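Identify kinases needed for colorectal cancer cell survival, with or without anchor drugs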 (primary screen). Cell system: human SNUC1 colorectal cancer cells. Reagents: siRNA pool against human genes. Conditions: anchor drugs BYL719 1 µM, cetuximab 5 µg/ml or trametinib 10 nM, or DMSO vehicle alone. Detection: 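Viability averaged over replicates and scaled to non-targeting siRNA, robust z-score with no drug, and synergy scores by drug for BYL719, cetuximab and trametinib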. Scale: viability z-score, siRNA alone: higher = more viable cells; low values mean essential gene. Active means: 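Essential when the robust viability z-score with siRNA alone falls below -3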. Meaning of the calls: active = essential: knock-down alone cut viability (z below -3); inactive = no clear viability loss with knock-down alone.
Here is one part, drawn at random, of 794 deposited reagents. Over the whole deposit, 9 (1.1%) got an active call. 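Calls rest on knock-down alone, not drug synergy; synergy above 0.15 was grouped apart and does not affect calls.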 A number with no mark means an inactive call. Not all columns of the deposit are shown. The record does not give: the amount of reagent, the time to read-out.

| gene knocked down | viability z-score, siRNA alone |
| --- | --- |
| IGF1R (insulin like growth factor 1 receptor) | -0.814 |
| ANKK1 (ankyrin repeat and kinase domain containing 1) | 0.122 |
| FES (FES proto-oncogene, tyrosine kinase) | 0.5 |
| MAPK9 (mitogen-activated protein kinase 9) | -0.304 |
| MAPKAPK2 (MAPK activated protein kinase 2) | 0.245 |
| SOS2 (SOS Ras/Rho guanine nucleotide exchange factor 2) | 0.936 |
| ALPK3 (alpha kinase 3) | -1.12 |
| KHK (ketohexokinase) | -0.774 |
| ERBB2 (erb-b2 receptor tyrosine kinase 2) | -0.214 |
| RPS6KA2 (ribosomal protein S6 kinase A2) | 0.147 |
| TJP2 (tight junction protein 2) | 0.936 |
| IRAK2 (interleukin 1 receptor associated kinase 2) | 0.131 |
| SBK1 (SH3 domain binding kinase 1) | 0.928 |
| AURKC (aurora kinase C) | 0.936 |
| FCSK (fucose kinase) | 0.936 |
| HK1 (hexokinase 1) | 0.915 |
| SGK3 (serum/glucocorticoid regulated kinase family member 3) | 0.936 |
| TSSK2 (testis specific serine kinase 2) | -0.243 |
| PIM2 (Pim-2 proto-oncogene, serine/threonine kinase) | 0.936 |
| NADK (NAD kinase) | -1.64 |

Sorted by “viability z-score, siRNA alone” (ascending): some entries from above.
| gene knocked down | viability z-score, siRNA alone |
| --- | --- |
| IRAK2 (interleukin 1 receptor associated kinase 2) | 0.131 |
| TJP2 (tight junction protein 2) | 0.936 |
